Data: paper PMC7139830, “Drug Conjugation Induced Modulation of Structural and Membrane Interaction Features of Cationic Cell-Permeable Peptides” (International Journal of Molecular Sciences, 2020)

Type: physicochemical
Conditions: for Degree of penetration (ΔΠ), increase of surface pressure: DPPC monolayer compressed to 20 mN/m, double-distilled water subphase, 2 µM peptide, after 1 h, accuracy ±0.5 mN/m; for Change of membrane affinity to DPPC monolayer on INH conjugation (conjugate vs native peptide): 20 mN/m, 2 µM, 1 h

Row | Substance | Degree of penetration (ΔΠ), increase of surface pressure [mN/m] | Change of membrane affinity to DPPC monolayer on INH conjugation (conjugate vs native peptide)
1 | TKPKGTKPKGTKPKGTKPKG [OT20, synthetic oligomer of Tuftsin, cationic carrier peptide] | < 2 | slightly decreasing membrane affinity
2 | CM15 | > 4 | slightly decreasing membrane affinity
3 | KRLFKKLLFSLRKY [Dhvar4, synthetic derivative of Histatin, a salivary histidine-rich cationic AMP] |  | penetration increased
4 | GIGKFLHSAKKFGKAFVGEIMNS [Magainin II, antimicrobial peptide isolated from amphibians] | > 4 | 
5 | RAGLQFPVGRVHRLLRK [Buforin II (5–21), antimicrobial peptide isolated from amphibians] | < 2 | penetration increased
